# In all, about 360,000 compounds went through this assay and about 7,500 (2.1%) were called active. The inconclusive results got no clear call from the source; some entries with a clear call stand among them for comparison. The call rests on the fitted dose curve; in most records, active means well fitted inhibition curve with a large enough effect; inconclusive means small, poorly fitted or top-dose-only effect, or effect the other way; inactive means flat fitted curve, though single readings scatter. A potency beside an inconclusive call is a rough fit, not a confirmed value.
# Assay: Nrf2 qHTS screen for inhibitors; further: nearly all actives have a fitted effect of over 60% in size
# Conditions: A549 ARE-Fluc reporter, luciferase luminescence, 18-24 h; activity change, negative = inhibition: at 46 µM (top of the series)
# Summary of the method: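 Nrf2 function is reported as luminescence of an ARE-controlled luciferase in A549 cells. Compounds were tested at several concentrations, and a CellTiter-Fluor read on the same wells flagged cytotoxicity.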
# On the % scale 0 is the no-effect control and ±100 the full control effect; potency means the concentration at half of the fitted maximal effect.
Compound,Potency,"activity change, negative = inhibition"
O=C(Nc1nccs1)c1cc2c(s1)-c1ccccc1OC2,"inconclusive: 7.31 µM [activator, partial curve]",–
Cc1c(C(=O)Nc2nccs2)oc2ccc(F)cc12,"inconclusive: 0.651 µM [activator, full curve]",–
COc1cccc(NC(=O)CN(C)C(=O)c2cc(-c3ccc(F)cc3)nc3ccccc23)c1,"inconclusive: 29.1 µM [falling, single point]",–
N/C(=N\C(=S)Nc1ccccc1)c1ccccc1,"inconclusive: 8.2 µM [activator, partial curve]",–
O=C(CN1C(=O)/C(=C\C=C\c2ccccc2)SC1=S)Nc1ccc(F)cc1,–,inactive: 5.22%
Cc1csc2c(NC3CCN(Cc4ccccc4)CC3)ncnc12,"inconclusive: 32.6 µM [falling, single point]",–
O=C(COc1cccc2c1CCN(Cc1ccc(Br)cc1)C2=O)N1CCOCC1,"inconclusive: 23.1 µM [falling, single point]",–
O=C1[C@H]2[C@@H](c3ccc(F)cc3)N3C(=O)N(c4cccc(Br)c4)C(=O)[C@@]3(Cc3ccccc3)[C@H]2C(=O)N1C1CCCCC1,"inconclusive: 2.59 µM [activator, full curve]",–
O=S1(=O)CCS(=O)(=O)C1c1ccccc1,"inconclusive: 20.6 µM [falling, single point]",–
O=C(CSc1nn(-c2ccccc2)c(=S)s1)Nn1cnnc1,–,inactive: 3.57%
CC(=O)Nc1nnc(SCC(=O)c2ccc3c(c2)Cc2ccccc2-3)s1,"inconclusive: 29.1 µM [activator, single point]",–
Cc1noc(C)c1-c1ccc2ncnc(NCc3ccc(Br)cc3)c2c1,–,inactive: -62.6%
CCc1ccc(NC(=O)C2CCCN2S(=O)(=O)c2ccc3nc(-c4ccccc4)[nH]c3c2)cc1 (configuration not stated),"inconclusive: 16.4 µM [falling, single point]",–
CP(=O)(Nc1cc(Cl)ccc1Cl)c1nc2c(s1)CCCC2 (configuration not stated),"inconclusive: 0.116 µM [falling, full curve, poor fit]",–
C/C(=N\NC(=O)c1c(Cl)cnn1C)c1ccc(NC(=O)c2ccncc2)cc1,–,inactive: -22%
CC1(C)Cc2c(cnn2-c2ccc(F)cc2)C(NC(=O)c2cnccn2)C1 (configuration not stated),"inconclusive: 8.2 µM [falling, partial curve, poor fit]",–
Cc1ccc(C(C)C)c(OCCNCCc2ccccc2)c1,–,inactive: -14.5%
COc1ccccc1NC(=O)CSc1n[nH]c(-c2ccccn2)n1,"inconclusive: 32.6 µM [falling, single point]",–
O=C(Nc1ccc(S(=O)(=O)N2CCOCC2)cc1)c1ccc(Cl)cc1,"inconclusive: 20.6 µM [falling, single point]",–
Cc1ccc(S(=O)(=O)Nc2nc3cc(C)c(C)cc3[nH]2)cc1,"inconclusive: 20.6 µM [falling, partial curve, poor fit]",–
CCOC(=O)C/C(C)=N\Nc1nc(-c2ccccc2)cs1,"inconclusive: 20.6 µM [activator, partial curve, poor fit]",–
C[C@H](NC(=O)c1ccco1)C(=O)Nc1nnc(SCc2ccccc2)s1,"inconclusive: 11.6 µM [falling, partial curve, poor fit]",–
CCOC(=O)c1cc(-c2ccccc2)sc1NC(=O)CCN1C(=O)c2ccccc2C1=O,"inconclusive: 2.59 µM [falling, full curve, poor fit]",–

Compound,Potency,"activity change, negative = inhibition"
O=C(C1CCN(S(=O)(=O)c2ccc3ccccc3c2)CC1)N1CCN(c2ncccn2)CC1,"inconclusive: 25.9 µM [falling, partial curve, poor fit]",–
CCc1cccc(NC(=O)CSc2nc3ccccc3nc2N2CCCCC2)c1,"inconclusive: 0.651 µM [activator, full curve]",–
COC(=O)C(NC(=O)C(C)NC(=O)OCc1ccccc1)C(C)C (configuration not stated),"inconclusive: 0.326 µM [falling, full curve, poor fit]",–
COc1cccc(NC(=O)c2sc3nc(C)c(C(=O)Nc4ccc(C)cc4C)c(-c4ccco4)c3c2N)c1,–,inactive: -9.36% [at 9.27 µM]
c1ccc(N2CC3COc4ccccc4C3=N2)cc1 (configuration not stated),"inconclusive: 18.4 µM [activator, partial curve]",–
N#Cc1ccccc1COC(=O)c1ccc2c(c1)OCCO2,–,inactive: -4.42%
COc1cccc(OCc2nc(-c3cccc([N+](=O)[O-])c3)no2)c1,"inconclusive: 29.1 µM [activator, single point]",–
O=C(Cn1c(/C=C/c2ccccc2)nc2ccccc21)Nc1ccc(F)cc1,"inconclusive: 9.2 µM [activator, partial curve, poor fit]",–
Cc1cccc(N2CCN(C(=O)c3cnn(-c4ccc(F)cc4F)c3C3CCN(C(=O)OC(C)(C)C)CC3)CC2)c1C,"inconclusive: 5.17 µM [falling, single point]",–
Cc1ccc(CNC(=O)Cn2nc(N3CCN(c4ccccc4)CC3)ccc2=O)cc1,"inconclusive: 5.8 µM [falling, partial curve, poor fit]",–
Cc1nc(SCC(=O)N(C)C2(C#N)CCCCC2)c2ccccc2n1,"inconclusive: 8.2 µM [falling, partial curve, poor fit]",–
COc1cc(C(=O)Nc2ccc(Cl)c(C(F)(F)F)c2)cc(OC)c1OC,–,inactive: -12.1%
c1ccc(CN2CCN(c3nc(NCc4ccco4)c4ccccc4n3)CC2)cc1,active: 23.1 µM,–
CCc1c(C(C)=O)oc2ccc3c(C)cc(=O)oc3c12,–,inactive: 18.7%
COc1cc2c(cc1OC)C1(Nc3c-2c(Cc2ccccc2)nn3-c2ccccc2)C(=O)Nc2ccccc21 (configuration not stated),active: 11.6 µM,–
Cc1ccc2oc(=O)c3cnn(CC(=O)N4CCN(c5ccccc5F)CC4)c3c2c1,–,inactive: 7.42%
O=C(Nc1nc(-c2ccccc2)cs1)c1ccc(N2CCOCC2)c([N+](=O)[O-])c1,active: 4.61 µM,–
CCOC(=O)C1(CCOc2ccccc2)CCN(Cc2cnc(C)[nH]2)CC1,"inconclusive: 9.2 µM [falling, partial curve, poor fit]",–
Fc1ccccc1NC(=S)Nc1ccc(Br)cc1,active: 23.1 µM,–
Cc1cc(=O)n(Cc2ccccc2)c2c1c(C)nn2-c1ccccc1,"inconclusive: 4.11 µM [activator, full curve, poor fit]",–
CCc1ccccc1NC(=O)c1ccc(Cn2nc(N3CCN(c4ccccc4)CC3)ccc2=O)o1,"inconclusive: 23.1 µM [falling, single point]",–
O=C(NCc1ccncc1)C(=O)NCC(c1ccco1)N1CCN(c2ccccc2)CC1 (configuration not stated),"inconclusive: 14.6 µM [falling, partial curve, poor fit]",–
C/C(CC(=O)NC1CCCCCC1)=N\NC(=O)c1cnccn1,"inconclusive: 32.6 µM [activator, single point]",–

# Compounds shown so far that have a nitro group on carbon:
Compound,Potency,"activity change, negative = inhibition"
COc1cccc(OCc2nc(-c3cccc([N+](=O)[O-])c3)no2)c1,"inconclusive: 29.1 µM [activator, single point]",–
O=C(Nc1nc(-c2ccccc2)cs1)c1ccc(N2CCOCC2)c([N+](=O)[O-])c1,active: 4.61 µM,–

# Continued.

Compound,Potency,"activity change, negative = inhibition"
Oc1cc2c(cc1C(c1ccc(Cl)c(Cl)c1)N1CCCC1)OCO2 (configuration not stated),–,inactive: 19.3%
CCC(C)Nc1ccc(NC(C)CC)cc1 (configuration not stated),active: 0.0731 µM,–
CCCSc1ncc(Cl)c(C(=O)N2CCN(c3cccc(Cl)c3)CC2)n1,"inconclusive: 29.1 µM [falling, single point]",–
O=C(CCS(=O)(=O)c1ccc(F)cc1)Nc1nc(-c2ccccn2)cs1,–,inactive: 5.05%
COc1ccccc1-c1cc(C(=O)N/N=C/c2sccc2C)c2ccccc2n1,–,inactive: 17.2%
Cc1ccccc1-n1cnc2c(sc3nc(N4CCOCC4)c4c(c32)CCCC4)c1=O,active: 20.6 µM,–
COC(=O)C1=CN(C)C=C(C(=O)OC)C1c1ccccc1Cl,–,inactive: -10.7%
O=C(NCC1CCN(C(=O)c2ccc([N+](=O)[O-])cc2)CC1)c1ccc([N+](=O)[O-])cc1,"inconclusive: 9.2 µM [falling, partial curve, poor fit]",–
CCn1nc(C)c(/C=C/C(=O)Nc2ccc(C)cc2C)c1C,"inconclusive: 18.4 µM [falling, single point]",–
COC(=O)C1C(=O)C(C(=O)c2ccccc2)C(=O)CC1(C)C (configuration not stated),"inconclusive: 11.6 µM [falling, partial curve, poor fit]",–
COc1ccc(S(=O)(=O)N(C)c2ccc(C(=O)Nc3ccccc3C(=O)N3CCOCC3)cc2)cc1,–,inactive: -5.32%
O=S(=O)(c1ccc(Cl)cc1)c1ccccn1,–,inactive: 0.224%
CCOC(=O)c1sc(=NC(=O)c2cccc(Br)c2)n(C)c1C,"inconclusive: 2.59 µM [activator, full curve]",–
Cc1nn(-c2ccccc2)c2sc(C(=O)Nc3cccc(Cl)c3)cc12,"inconclusive: 25.9 µM [falling, partial curve, poor fit]",–
Cc1cc(C(=O)N(C)Cc2ccc(Br)cc2)no1,"inconclusive: 20.6 µM [falling, partial curve]",–
Cc1ccc(NC2Nc3cc(C)nn3S2)c(C)c1 (configuration not stated),"inconclusive: 16.4 µM [activator, partial curve]",–
CC(=O)N(C(C)=O)n1c(C)nc2sc3c(c2c1=O)CCCC3,"inconclusive: 23.1 µM [falling, single point]",–
CN(c1ccc(OCC(=O)OCC(=O)Nc2ccc(F)cc2)cc1)S(=O)(=O)c1ccc(Cl)cc1,–,inactive: 3.08%
CCc1ccc(N2CC(C(=O)OCC(=O)c3c(N)n(CC(C)C)c(=O)n(C)c3=O)CC2=O)cc1 (configuration not stated),"inconclusive: 29.1 µM [falling, partial curve, poor fit]",–
Cc1ccc(C)c(N2CCN(C(=O)CCS(=O)(=O)c3cc(Br)cc4c3N(C(=O)C3CC3)CC4)CC2)c1,–,inactive: -21.6%
O=C(Nc1ccc(OCC(F)(F)C(F)F)c(C(F)(F)F)c1)c1ccccc1O,"inconclusive: 32.6 µM [falling, single point]",–

# From PubChem BioAssay AID504444 (National Center for Advancing Translational Sciences (NCATS), 2011)
